Test in all cases: two-hybrid; binding domain (pDEST32) and activation domain (pDEST22) fusions combined in both directions by mating PJ69-4A and PJ69-4α; selection on SD -Leu -Trp -Ade and SD -Leu -Trp -His + 1, 5 or 10 mM 3-AT; +22°C for 5 days; positive if either direction grew
For one test, the target named is T1, GDEF1 (Gerbera hybrida) (UniProt Q9ZS28).
T1 sequence: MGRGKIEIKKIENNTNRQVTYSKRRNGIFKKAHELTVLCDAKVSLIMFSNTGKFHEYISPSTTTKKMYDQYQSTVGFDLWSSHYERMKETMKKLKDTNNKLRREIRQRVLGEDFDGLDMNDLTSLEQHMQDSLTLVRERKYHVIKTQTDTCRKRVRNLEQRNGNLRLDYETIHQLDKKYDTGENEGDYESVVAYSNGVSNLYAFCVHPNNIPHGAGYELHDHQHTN

In the next test the target is T2, GDEF2 (Gerbera hybrida) (UniProt Q9ZS27).
T2 sequence: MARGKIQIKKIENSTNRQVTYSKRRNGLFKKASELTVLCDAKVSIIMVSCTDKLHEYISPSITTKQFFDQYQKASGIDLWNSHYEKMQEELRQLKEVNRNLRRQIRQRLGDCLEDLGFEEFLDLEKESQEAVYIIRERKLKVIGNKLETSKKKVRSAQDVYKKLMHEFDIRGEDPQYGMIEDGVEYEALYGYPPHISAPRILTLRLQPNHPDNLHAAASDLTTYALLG

The target in the next test is T3, GSQUA2 (Gerbera hybrida) (UniProt D2T2G0).
T3 sequence: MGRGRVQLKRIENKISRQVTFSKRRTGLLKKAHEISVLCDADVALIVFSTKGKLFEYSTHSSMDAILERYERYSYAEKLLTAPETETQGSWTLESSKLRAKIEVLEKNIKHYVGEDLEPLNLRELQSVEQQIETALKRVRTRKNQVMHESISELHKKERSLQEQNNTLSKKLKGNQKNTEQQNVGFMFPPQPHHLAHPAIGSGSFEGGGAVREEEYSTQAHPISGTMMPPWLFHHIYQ

In the next test the target is T4, GSQUA3 (Gerbera hybrida) (UniProt D2T2G1).
T4 sequence: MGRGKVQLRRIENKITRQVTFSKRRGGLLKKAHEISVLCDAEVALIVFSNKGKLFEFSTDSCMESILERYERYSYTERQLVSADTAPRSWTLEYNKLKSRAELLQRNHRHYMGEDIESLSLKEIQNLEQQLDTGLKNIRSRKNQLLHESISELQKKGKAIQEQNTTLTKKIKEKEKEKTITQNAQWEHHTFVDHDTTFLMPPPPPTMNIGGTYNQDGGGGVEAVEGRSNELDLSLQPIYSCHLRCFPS

These are yes or no findings as the source states them, for the method shown. For some assays here: Binding calls can cover weak binding; strength is not graded here.

Our source for the binding values is publication PMC3017775.

For the substance “GRCD4, truncated (C terminal deletion) (Gerbera hybrida) (domain or fragment)”, the binding entry is recorded as “no binding” in the test with GDEF1 (Gerbera hybrida), “no binding” with GDEF2 (Gerbera hybrida), “binds” with GSQUA2 (Gerbera hybrida) and “binds” with GSQUA3 (Gerbera hybrida).

For “GRCD5, truncated (C terminal deletion) (Gerbera hybrida) (domain or fragment)”, the binding entry in the test with GDEF1 (Gerbera hybrida) is given as “no binding”; with GDEF2 (Gerbera hybrida), “no binding”; in the test with GSQUA2 (Gerbera hybrida) it was “binds”; with GSQUA3 (Gerbera hybrida) it was “binds”.
